Record: PubChem BioAssay AID743454 (Peter MacCallum Cancer Centre, 2014)
Here is one part, drawn at random, of about 18,000 reagents. Over the whole deposit, 450 (2.5%) were called active. 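Single biological run; no consistent viability z cut-off exists, so the class columns, not z-scores, define the calls.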

- Aim: 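Knock-downs lowering viability or raising caspase 3/7 activity in vorinostat-treated resistant cells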 (primary screen)
- System: human HCT116-VR colon cancer cells, selected for vorinostat resistance
- Knock-down reagent: siRNA pool against human genes, 40 nM siRNA pool
- Time to read-out: vorinostat for 24 h, read-out about 72 h after transfection
- Challenge: vorinostat at 2.5 µM final
- Measured: 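Two measures, CellTiter-Fluor viability and luminescent caspase 3/7 activity, each as fold change against same-plate mock wells, mean of duplicates, then screen-wide robust z-score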
- Reading the numbers: viability robust z-score: higher = more viable cells than screen typical; caspase robust z-score: higher = more caspase 3/7 activity than screen typical
- Call rule: 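a knock-down is a hit when classed RV1 or RV2 for lowered viability, or CA1 or CA2 for caspase activation; those lethal without drug were dropped; hits were retested singly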

For USP13, what does the deposit list?
viability hit class: no change; caspase hit class: no change; viability robust z-score: -0.7; caspase robust z-score: -0.42; call: inactive

For EPX, what was measured?
viability hit class: no change; caspase hit class: no change; viability robust z-score: -0.14; caspase robust z-score: -0.6; call: inactive

For SOX21, how do the results read?
viability hit class: no change; caspase hit class: no change; viability robust z-score: -0.57; caspase robust z-score: -0.07; call: inactive

For ATG14, how do the results read?
viability hit class: no change; caspase hit class: no change; viability robust z-score: 1.12; caspase robust z-score: -0.53; call: inactive

What is on record for DNAJB6?
viability hit class: no change; caspase hit class: no change; viability robust z-score: 0.68; caspase robust z-score: 0.07; call: inactive

2 successive reagents from above:
ATG14: viability hit class = no change; caspase hit class = no change; viability robust z-score = 1.12; caspase robust z-score = -0.53; call = inactive
DNAJB6: viability hit class = no change; caspase hit class = no change; viability robust z-score = 0.68; caspase robust z-score = 0.07; call = inactive

Continued.
What did the screen give for GSAP?
viability hit class: no change; caspase hit class: no change; viability robust z-score: 1.09; caspase robust z-score: 0.01; call: inactive

For OR2T11, what does the deposit list?
viability hit class: no change; caspase hit class: no change; viability robust z-score: -1.16; caspase robust z-score: -0.12; call: inactive

What did the screen give for SCGB3A1?
viability hit class: no change; caspase hit class: no change; viability robust z-score: -0.85; caspase robust z-score: -0.62; call: inactive

Which result is listed for TPSD1?
viability hit class: no change; caspase hit class: no change; viability robust z-score: 1.09; caspase robust z-score: -0.56; call: inactive

Which result is listed for ZNF687?
viability hit class: no change; caspase hit class: no change; viability robust z-score: -0.01; caspase robust z-score: 0.17; call: inactive

For C9, what was measured?
viability hit class: no change; caspase hit class: no change; viability robust z-score: 0.24; caspase robust z-score: -0.06; call: inactive

Which result is listed for PGAP3?
viability hit class: no change; caspase hit class: no change; viability robust z-score: 1.16; caspase robust z-score: 1.55; call: inactive
